Results: PMC7099619
These are yes or no findings as the source states them, for the method shown. In cells and extracts the contact can be indirect. Some entries that bind do so weakly or less than the wild type.

Molecular target: T1, receptor activator of nuclear factor-kB (RANK) (mouse (endogenous in RAW264.7)) (UniProt O35305)
T1 sequence: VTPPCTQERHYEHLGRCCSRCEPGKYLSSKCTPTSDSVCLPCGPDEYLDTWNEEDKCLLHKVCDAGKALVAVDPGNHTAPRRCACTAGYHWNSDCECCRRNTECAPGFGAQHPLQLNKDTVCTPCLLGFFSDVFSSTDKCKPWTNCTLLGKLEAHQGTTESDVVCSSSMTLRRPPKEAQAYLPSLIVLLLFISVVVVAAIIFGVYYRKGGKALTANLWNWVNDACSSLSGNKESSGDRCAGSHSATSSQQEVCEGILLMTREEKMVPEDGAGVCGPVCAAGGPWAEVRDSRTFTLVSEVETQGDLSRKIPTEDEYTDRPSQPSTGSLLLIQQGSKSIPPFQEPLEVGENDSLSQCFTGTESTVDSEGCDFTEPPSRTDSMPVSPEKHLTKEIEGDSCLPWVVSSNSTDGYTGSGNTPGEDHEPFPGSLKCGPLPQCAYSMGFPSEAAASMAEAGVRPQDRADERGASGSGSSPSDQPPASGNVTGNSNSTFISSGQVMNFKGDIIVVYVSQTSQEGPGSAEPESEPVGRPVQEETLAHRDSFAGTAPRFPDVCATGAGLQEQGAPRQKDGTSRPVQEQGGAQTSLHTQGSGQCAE
Assay: co-IP; RAW264.7 cells treated with vehicle or muscone (40 μM), with or without RANKL; TRAF6 detected by Western blot, Input: TRAF6 and IB: RANK as loading controls

- binding: binds
B1: TNF receptor-associated factor 6 (protein, UniProt P70196 1-530)
chain: MSLLNCENSCGSSQSSSDCCAAMAASCSAAVKDDSVSGSASTGNLSSSFMEEIQGYDVEFDPPLESKYECPICLMALREAVQTPCGHRFCKACIIKSIRDAGHKCPVDNEILLENQLFPDNFAKREILSLTVKCPNKGCLQKMELRHLEDHQVHCEFALVNCPQCQRPFQKCQVNTHIIEDCPRRQVSCVNCAVSMAYEEKEIHDQSCPLANIICEYCGTILIREQMPNHYDLDCPTAPIPCTFSVFGCHEKMQRNHLARHLQENTQLHMRLLAQAVHNVNLALRPCDAASPSRGCRPEDPNYEETIKQLESRLVRQDHQIRELTAKMETQSMYVGELKRTIRTLEDKVAEMEAQQCNGIYIWKIGNFGMHLKSQEEERPVVIHSPGFYTGRPGYKLCMRLHLQLPTAQRCANYISLFVHTMQGEYDSHLPWPFQGTIRLTILDQSEALIRQNHEEVMDAKPELLAFQRPTIPRNPKGFGYVTFMHLEALRQGTFIKDDTLLVRCEVSTRFDMGGLRKEGFQPRSTDAGV
